A number of entries come with more than one value. The other results are left out here. The source may hold further records. The records of an entry differ for a reason that is not stated; some may be repeats, others may stem from another dose, organism or construct than stated.

The test system of the test is human T-cells. Put plainly: ELISA for IL-2 secretion of T cells. Particulars: 10 μM peptide, 24 hours, T cells of healthy donors, serum-free medium. On the procedure: C1 IKZF3 Domain Modified peptide (C1M) (Table 1) was tested in cell culture model to examine its ability to abrogate the IKZF1-IKZF3-induced IL-2 suppression. 18 different healthy donors were used to isolate the T cells using magnetic cell sorting approach. Afterwards, T cells were cultured for 24 hours in serum-free T cell medium and either 10 μM of the C1M peptide or Scrambled as a negative control or 10 μM Lenalidomide or 1 μM of Pomalidomide (as an IMiD control which have been previously described).
After 24 hours, the supernatant was collected and centrifuged to remove any cells and stored in-20 degrees. […]
In this assay, T cells were isolated from the peripheral blood of healthy donors and cultured in serum-free medium. […] After 24 hours, the supernatants from the cells were collected, and the levels of IL-2 were measured using a sensitive ELISA kit according to the manufacturer's instructions.
By comparing the levels of IL-2 secretion in cells treated with the testing peptide versus the control peptide, we were able to determine the peptide's ability to increase IL-2 secretion in T cells. This assay provided a quantitative readout of the peptide's activity and allowed us to accurately assess the effectiveness of the peptide in promoting IL-2 secretion.
(In an ELISA, binding on a coated surface is turned into a signal by an enzyme label.)

As for `CC[C@H](C)[C@H](NC(=O)[C@@H](NC(=O)[C@H](Cc1ccccc1)NC(=O)[C@H](CCSC)NC(=O)[C@@H](NC(=O)[C@H](Cc1ccc(O)cc1)NC(=O)[C@H](CC(=O)O)NC(=O)[C@H](CC(C)C)NC(=O)[C@H](Cc1ccccc1)NC(=O)[C@H](CC(C)C)NC(=O)[C@@H](NC(=O)[C@H](CCCNC(=N)N)NC(=O)[C@H](CS)NC(=O)[C@H](Cc1c[nH]cn1)NC(=O)[C@H](CC(=O)O)NC(=O)[C@H](CS)NC(=O)[C@H](CCCNC(=N)N)NC(=O)[C@H](Cc1ccc(O)cc1)NC(=O)[C@H](CCCNC(=N)N)NC(=O)[C@@H](N)CCCNC(=N)N)C(C)C)C(C)C)[C@@H](C)O)C(=O)N[C@@H](Cc1c[nH]cn1)C(=O)N[C@@H](CCSC)C(=O)NCC(=O)N[C@@H](CS)C(=O)N[C@@H](Cc1c[nH]cn1)C(=O)N[C@@H](CCCNC(=N)N)C(=O)N[C@@H](CCCNC(=N)N)C(=O)N[C@@H](CCCNC(=N)N)C(=O)N[C@@H](CCCNC(=N)N)C(=O)O`, the IL-2 secretion result was “in all cases, IL-2 secretion increased and increase in IL-2 production”.

For the origin of these results see patent US20260384479A1, “PEPTIDES AS ANTAGONISTS OF IKAROS ZINC FINGER FAMILY (IKZF) PROTEINS TO ACTIVATE THE IMMUNE SYSTEM AGAINST TUMOR CELLS” (published 2026).
